Some of the results follow. These are further read-outs of the screen, such as a control signal, another cell line or another target. No call is given for them. Compounds called inactive in the main read-out are mostly missing here. Potencies come from curve fits of mixed quality, noted in brackets.
Assay: qHTS Assay for Lipid Storage Modulators in Drosophila S3 Cells;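 on cell number change: cells counted by Cell Tracker Red CMTPX staining in the red channel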
Conditions: BODIPY lipid droplet fluorescence, 18-24 h; for cell number change: measured here: cell count max response, cells fed with added oleic acid
In short: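 Drosophila S3 cells loaded with oleic acid (400 uM, as added) and compounds at several concentrations; lipid droplets imaged by 488-nm laser-scanning cytometry, 500–530 nm intensity and object ratio to cell channel. Percent activity normalized to 20 uM Triacsin C.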

[1] = measured here: lipid fluorescence (Fed channel) AC50, cells fed with added oleic acid
[2] = measured here: cell number channel AC50, cells fed with added oleic acid

Structure (SMILES)	cell number change	AC50 [1]	AC50 [2]
O=C(NNC(=S)Nc1ccc(Cl)cc1)c1cccs1	-27.1%	32.6 µM [falling, partial curve, poor fit]	
CCN1CCN(CCNC(=O)c2ccc(/C=C3/Sc4ccccc4N(Cc4ccccc4C)C3=O)cc2)CC1	-56.5%	18.4 µM [falling, partial curve]	16.4 µM [falling, partial curve]
CCN(CC)c1cccc(OC(=O)c2cccnc2Cl)c1		29.1 µM [rising, single point]	
COc1ccc(S(=O)(=O)N2CCC(C(=O)NC(c3nc4ccccc4[nH]3)C(C)C)CC2)cc1 (stereo not given)	-29.8%		
O=C(N/N=C/c1cc([N+](=O)[O-])ccc1O)c1ccc(COc2ccc3c(c2)CCC3)o1	-46.3%		29.1 µM [falling, single point]
COc1cc(OC)c2ccc(=O)oc2c1C(CC(=O)N1CCCC1)c1ccc2c(c1)OCO2 (stereo not given)	17.5%	0.411 µM [rising, full curve, poor fit]	
CCCN(CCC)S(=O)(=O)c1ccc(C(=O)Nc2nc3c(s2)CCc2ccccc2-3)cc1	-55.5%	25.9 µM [falling, partial curve, poor fit]	18.4 µM [falling, partial curve, poor fit]
COC(=O)c1cccc(COC(=O)c2ccccc2NC(=O)c2ccco2)c1	-5.47%		
Cc1c(Cc2ccccc2)c(=O)oc2c(C)c(OCC(=O)NCC3CCC(C(=O)O)CC3)ccc12 (stereo not given)	14.2%		
Cc1cccc(C(=O)N2CCC(=O)N(C(COCc3cccc(C(F)(F)F)c3)Cc3ccccc3)CC2)c1 (stereo not given)	4.3%	2.91 µM [falling, partial curve]	
CCNc1sc(C(=O)c2cccs2)c(N)c1-c1nc2ccccc2s1	-56.1%	29.1 µM [falling, single point]	29.1 µM [falling, single point]
O=C(Nc1nc2ccsc2c(=O)s1)c1ccc(F)cc1Cl	-18.7%		
O=C(Nc1cccnc1)c1cc(S(=O)(=O)N2CCOCC2)ccc1Br	17.3%	17.8 µM [rising, partial curve]	
CC(=O)c1cccc(NC(=O)C2C3C=CC(C3=C(c3ccccc3)c3ccccc3)C2C(=O)O)c1 (stereo not given)		0.13 µM [rising, full curve, poor fit]	0.058 µM [rising, full curve, poor fit]
O=S(=O)(c1ccc2ccccc2c1)N1CCCCC1		0.13 µM [falling, full curve]	
O=C(Oc1cccc2c(O)cccc12)c1ccccc1	-64.3%	29.1 µM [falling, single point]	25.9 µM [falling, single point]
Cc1ccc(C(=O)N/C(=C\c2ccc(-c3ccc(Br)cc3)o2)C(=O)NC2CCS(=O)(=O)C2)cc1 (stereo not given)	-36.1%	25.9 µM [falling, single point]	20.6 µM [falling, single point]
CSc1ncc(Cl)c(C(=O)Nc2sc3c(c2C(=O)NCc2ccco2)CCCC3)n1	4.31%	9.2 µM [rising, partial curve]	

Structure (SMILES)	cell number change	AC50 [1]	AC50 [2]
COc1ccc(CNC(=O)COC(=O)C2CC2C)cc1OC (stereo not given)	1.5%	29.1 µM [falling, single point]	
COC(=O)c1nnn(Cc2ccccc2)c1N	-13.4%		
O=C(NCC(=O)N(c1ccc(F)cc1)C(C(=O)NC1CCCC1)c1cccnc1)c1cccs1 (stereo not given)	-36%	11.6 µM [falling, partial curve]	9.2 µM [falling, partial curve]
Cc1ccc(C)c(OCC(=O)Nc2ccccc2C(=O)N2CCOCC2)c1	-41.8%	11.6 µM [falling, partial curve]	16.4 µM [falling, partial curve, poor fit]
c1ccc(OCCCc2nc(-c3cccnc3)no2)cc1	8.05%	1.16 µM [rising, full curve]	
CC(C)NC(=O)c1cnc(Sc2ncc(C(F)(F)F)cc2Cl)n1C	3.7%	2.31 µM [rising, full curve, poor fit]	
CCOC(=O)c1c(-c2ccc(C)o2)csc1NC(=S)NC(=O)c1ccc(F)cc1	9.86%	0.366 µM [rising, partial curve, poor fit]	
CC(=O)c1ccc(O)c(CSc2nncn2C)c1	1.92%	6.51 µM [rising, single point]	
CCOc1cc(/C=N/Nc2cccc(C(=O)O)c2)ccc1OC(=O)c1ccccc1	17.5%	1.46 µM [rising, partial curve, poor fit]	
COc1ccc(/C=N/NC(=O)c2cc(C34CC5CC(CC(C5)C3)C4)[nH]n2)cc1OC	10.8%	1.3 µM [rising, partial curve, poor fit]	
CN1/C(=C\C(=S)NC(=O)c2ccccc2Cl)C(C)(C)c2ccccc21	-4.6%	29.1 µM [falling, single point]	
Cc1ccc(Nc2nc(-c3ccccc3)c(CC(=O)O)s2)cc1	14.3%		
COc1ccccc1-n1cnc2cc(NS(=O)(=O)c3ccc(Br)cc3)ccc21		29.1 µM [rising, partial curve]	0.206 µM [rising, full curve, poor fit]
CCc1ccc(CNC(=O)C2CCCN(S(=O)(=O)N3CC(C)CC(C)C3)C2)cc1 (stereo not given)	8.56%	0.58 µM [rising, single point]	
CC(C)Oc1ccc(CN2CCC(n3nccc3NC(=O)c3cccnc3)CC2)cc1	49.9%		7.31 µM [rising, partial curve, poor fit]
Cc1ccc(NC(=O)COC(=O)c2ccccc2-c2nc3ccccc3s2)c(C)c1	15.3%	4.11 µM [rising, partial curve, poor fit]	
C=CCNC(=O)c1sc(=S)n(-c2ccc(C(=O)OCC)cc2)c1N	-0.729%	29.1 µM [rising, single point]	
COC(=O)c1sccc1-n1cccc1C(=O)NCc1ccccc1	16.1%		

A few values from the results shown:
In cell number change, Cc1ccc(NC(=O)COC(=O)c2ccccc2-c2nc3ccccc3s2)c(C)c1 is entered as 15.3%
In cell number change, COc1ccc(/C=N/NC(=O)c2cc(C34CC5CC(CC(C5)C3)C4)[nH]n2)cc1OC is entered as 10.8%

Reference: PubChem BioAssay AID2685 (National Center for Advancing Translational Sciences (NCATS), 2010)
